Screening data, single-dose tests

Source: ChEMBL document CHEMBL3988442, “University of Dundee, Small-Polar-MMV Screening Library” (2021).

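Assay of Toxoplasma gondii numbers, read through their beta-galactosidase reporter with a colour substrate. Compounds at 50 µM. Higher reads as fewer parasites (inferred from which compounds were picked for retests). Size under these conditions: about 18,000 compounds, about 170 of them at 50% or above in at least one test.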

Each number is a percent effect as filed. How 0% and 100% were set is not recorded. Most values in the screen are low, and negative values occur. The compounds are a random part of those screened.

{"compound": "NCc1cccc(N2CCCC2=O)c1", "effect": 2.084}
{"compound": "O=C(Oc1nsnc1N1CCCCC1)N1CCOCC1", "effect": -8.78}
{"compound": "Cc1cccc(NCCC[S+](C)[O-])n1", "stereo": "stereo not given", "effect": 10.39}
{"compound": "Cn1ccnc1CN1CCN(Cc2nccn2C)CC1", "effect": 1.78}
{"compound": "CN(C)C(=O)c1occc1Br", "effect": 16.44}
{"compound": "CC(=O)N1CCN(Cc2cccc(N)n2)CC1", "effect": 4.279}
{"compound": "CC(=O)Nc1nc(C(=O)NCc2ccc(C)s2)cs1", "effect": 3.568}
{"compound": "Cc1occc1[S+]([O-])CC(=O)c1ccc[nH]1", "stereo": "stereo not given", "effect": -9.186}
{"compound": "CCN1CCC(NC(=O)c2ccc(OC)c(F)c2)CC1", "effect": -10.39}
{"compound": "CN(C)C(=O)Nc1cc(F)cc(F)c1", "effect": 57.68}
{"compound": "O=S(=O)(CCO)Cc1ccccc1Oc1ccccc1", "effect": 13.93}
{"compound": "O=C(Oc1ccc(F)cc1)N1CCOCC1", "effect": -6.807}
{"compound": "Cc1nc(C(N)=O)c[nH]1", "effect": 0.4089}
{"compound": "Cn1cc(NC(=O)c2ccc(Br)s2)cc1C(N)=O", "effect": 1.111}
{"compound": "CN(C)C(=O)C1CCNCC1", "effect": -9.805}
{"compound": "CCC(C)(C)C(=O)Nc1ccc(C)c(C(N)=O)c1", "effect": -12}
{"compound": "COCC(=O)NC1CCNCC1", "effect": -2.789}
{"compound": "C=C(C)CN1CCC(NC(=O)NCC2CCCO2)CC1", "stereo": "stereo not given", "effect": 8.678}
{"compound": "COC(=O)COc1ccc2c(c1)OCO2", "effect": 6.852}
{"compound": "COC1CCN(C(=O)CCc2ccc(F)cc2F)C1", "stereo": "stereo not given", "effect": -4.112}
{"compound": "CCOc1ccc(S(=O)(=O)N2CCN(C)CC2)cc1", "effect": -11.08}
{"compound": "N#CCOc1cccc(CN)c1", "effect": -12.1}
{"compound": "N[C@H]1CCO[C@@H]1c1cccnc1", "effect": -3.708}
{"compound": "Cc1occc1C(=O)NCCCN1CCCC1", "effect": -4.871}
{"compound": "CN(Cc1ccncc1)c1cc(C(N)=O)ccn1", "effect": 0.2165}
{"compound": "COCCN1CCCC1C(=O)Nc1ccccc1", "stereo": "stereo not given", "effect": 11.58}
{"compound": "CNC(=O)c1ccnc(-c2ccnc3c2ccn3C)c1", "effect": -11.98}
{"compound": "NCC[C@@H]1CCC(=O)N1", "effect": -57.48}
{"compound": "Clc1cccc2nc(N3CCNCC3)oc12", "effect": -15.39}
{"compound": "CCn1cc(S(=O)(=O)NCc2ccccc2F)cn1", "effect": -9.248}
{"compound": "CCCNC(=O)c1cc(C(C)C)on1", "effect": -1.515}
{"compound": "N#CCSc1nc2c(cc1C#N)CCCC2", "effect": -7.092}
{"compound": "CN(CCN1CCOCC1)C1CCNCC1", "effect": -3.084}
{"compound": "Cc1ccc(C(=O)N2CCCC2c2ccc[nH]2)o1", "stereo": "stereo not given", "effect": 12.96}
{"compound": "O=C1NCCN2CC3(CCNCC3)CC12", "stereo": "stereo not given", "effect": -7.574}
{"compound": "COc1cccc(OCC(O)CN2CCN(C)CC2)c1", "stereo": "stereo not given", "effect": -4.64}
{"compound": "CCN(Cc1ccc(OC)nc1)[C@H]1COC[C@@H]1O", "effect": -8.839}
{"compound": "NC(=O)CC1COCCN1", "stereo": "stereo not given", "effect": -1.884}
{"compound": "O=C(CCNC(=O)c1ccco1)Nc1ccncc1Cl", "effect": 6.598}
{"compound": "CC(C)=CCNC(=O)NCC(C)(C)N1CCOCC1", "effect": -0.6271}
{"compound": "CS(=O)(=O)CC1(CN)CCOCC1", "effect": -7.291}
{"compound": "NC(=O)CCS(=O)(=O)CCN1CCOCC1", "effect": -6.773}
{"compound": "O=C(c1ccsc1)N1CCC2(CC1)OCCO2", "effect": -6.494}
{"compound": "CCC(=O)NC1CCCc2nc(N(C)C)ncc21", "stereo": "stereo not given", "effect": 69.08}
{"compound": "COc1ccccc1C(N)C#N", "stereo": "stereo not given", "effect": -0.5425}
{"compound": "CCOC(=O)NCCNC(=O)c1ccc(O)c(Cl)c1", "effect": -6.133}
{"compound": "c1nc2c(c(NCCC3CCOC3)n1)CCNCC2", "stereo": "stereo not given", "effect": 10.21}
{"compound": "COCC1(CNC(=O)CCCn2ccnc2)CCCC1", "effect": -4.536}

The last 5 entries again:

{"compound": "CCC(=O)NC1CCCc2nc(N(C)C)ncc21", "stereo": "stereo not given", "effect": 69.08}
{"compound": "COc1ccccc1C(N)C#N", "stereo": "stereo not given", "effect": -0.5425}
{"compound": "CCOC(=O)NCCNC(=O)c1ccc(O)c(Cl)c1", "effect": -6.133}
{"compound": "c1nc2c(c(NCCC3CCOC3)n1)CCNCC2", "stereo": "stereo not given", "effect": 10.21}
{"compound": "COCC1(CNC(=O)CCCn2ccnc2)CCCC1", "effect": -4.536}